We go through 5 sequences from US5643780.

The exact form of at least one protein or probe is not confirmed. A weaker result is weaker than the reference pair of the same experiment.

The test system of this data set is eIF-4E (eukaryotic initiation factor 4E, cap-binding protein). Kind of data set: EMSA. The note with it: m7Gppp cap at RNA 5' end, 0 C, purified recombinant protein, label: 32P on RNA, DNA:RNA hybrid. On the technique in general: In EMSA bound probe runs differently from free probe, usually more slowly.
Setting [1] is: enhancement of eIF-4E:m7GpppRNA complex by antisense, range over three oligos, 1.2 uM eIF-4E, 40 mM HEPES pH 7.4, 100 mM KCl.

“GAGCAGCUCCUCUGCUACUCAGA / CTCTGAGTAGCAGAGGAGCU [capped 23-mer RNA hybridized to ISIS 3251T (Tren)]”: for the setting “FITC at RNA 3' end, triethylene tetramine tethered to 3'-terminal oxidized U of antisense, decreased eIF-4E complexation vs same oligo without Tren”, the binding result is reported as “binds more weakly”.
On to “GAGCAGCUCCUCUGCUACUCAGA / CTCTGAGTAGCAGAGGAGCU [capped 23-mer RNA hybridized to ISIS 3251]”, for which the binding result (FITC at RNA 3' end, 3'-terminal ribo-U on antisense, reference complex without Tren) is listed as “binds”.
In the case of “GAGCUCCUCUGCUACUCAGA / TCTGAGTAGCAGAGGAGCTCA”, the binding result under setting [1] is recorded as “binds”.
For the sequence “GAGCUCCUCUGCUACUCAGA / TCTGAGTAGCAGAGGAGCTCC”, the binding result under setting [1] was “binds”.
Regarding “GAGCUCCUCUGCUACUCAGA / TCTGAGTAGCAGAGGAGCTCT”, the binding result under setting [1] is listed as “binds”.
